In patent US10568897B2, “Bidens pilosa and polyacetylenic compounds for prevention and treatment of coccidiosis” (ACADEMIA SINICA, priority 2011, dated 2020):

Tested on: E. tenella
Experiment: Eimeria infection (coccidiosis) in chickens: survival, body weight, clinical symptoms, gut lesions, excreted oocysts
Assay type: in vivo
Description: FIGS. 3 A-F show the effect of BPP on the survival rate (FIG. 3A), sick bird appearance (FIG. 3B) and clinical symptoms (FIG. 3C) in the chickens. One-day-old chickens were fed with control diet for 14 days. On day 14, the birds were infected with vehicle (CTR) or E. tenella (ET) and fed with control diet (CTR and ET groups) and the diet containing 6 mg/kg maduramicin (ET+Mad), or 5%, or 1%, or 0.5% of BPP (ET+BPP) for additional 7 days. After the birds were sacrificed, the cecum was dissected and fixed for hematoxylin and eosin Y staining. The representative images of cecal hemorrhagic lesions (FIG. 3D) and histopathology (FIG. 3E) are shown.
One-d-old Lohmann broiler chicks hatched at Taichung Hatchery (Taiwan) were wing-banded upon arrival, weighed, and randomly placed in Petersime starter brooder units. At 1 and 2 d post-hatch, the birds were given free access to water and diets. […] Growth performance (body weight and feed conversion), pathology (bloody droppings and gut morphometry) and survival rate were measured and examined. […]
Since B. pilosa was claimed to treat protozoan and bacterial infections, we tested whether B. pilosa could protect the chickens from coccidiosis. […] Body weight was measured. […]
The excretion of oocysts is an important indicator of the efficacy of anti-coccidial drug. Thus, we assessed the number of excreted oocysts from the chickens with Eimeria infection. […]

CO[C@@H]1[C@@H](OC)[C@H](C)[C@@](O)(CC(=O)O)O[C@H]1[C@H](C)[C@H]1O[C@@]2(CC[C@@](C)([C@H]3CC[C@@](C)([C@@H]4O[C@@H]([C@H]5O[C@](C)(O)[C@H](C)C[C@@H]5C)C[C@@H]4O[C@@H]4C[C@H](OC)[C@@H](OC)[C@H](C)O4)O3)O2)C[C@H](O)[C@H]1C [maduramicin, Maduramicin]
Body weight Day 7 (before infection and treatment (control diet until day 14)): 65.5 ± 5.7 g | Body weight Day 14 (day of E. tenella infection, start of treatment diet): 111.8 ± 2.9 g
